The supplement of paper PMC10735217
Counter-ions that a name gives are not always drawn. This is one part of the list. Single values are uncertain here, since repeats match poorly.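 In a drug-repurposing library screen, luminescence reads luciferase driven by eight TEAD-binding elements, stably integrated into human kidney-derived cells. Compounds scoring over five robust Z scores above the plate mean are called hits.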

Test system: HEK293A TEAD-LUC reporter
Assay: TEAD-luciferase reporter activity (YAP activation), robust Z score vs plate; higher = stronger YAP/TEAD activation
Details: 24 h

Row | SMILES | TEAD-luciferase reporter activity (compound concentration: 200 nM) | TEAD-luciferase reporter activity (compound concentration: 10 uM) | TEAD-luciferase reporter activity (compound concentration: 2 uM)
1 | CCCCCn1cc(-c2nc(CN(CCOC)C(C)C)cs2)c2ccccc21 [PTI-2 (hydrochloride)] | inactive: -1.16 | active: 7.11 | –
2 | CCCCCn1cc(-c2nc(CN(CCOC)C(C)C)cs2)c2ccccc21 | – | – | inactive: -1.01
3 | CCOC(=O)C1(c2ccccc2)CCN(CCc2ccc(NC(=O)C(N)CC(C)C)cc2)CC1 (stereo not given) | inactive: -0.208 | inactive: 1.75 | inactive: -0.421
4 | Clc1cc(N2C[C@@H]3CN[C@@H]3C2)cnc1Cl | inactive: -0.796 | inactive: 4.56 | inactive: -1.07
5 | O=C1CN=C(c2ccccc2F)c2cc(Cl)ccc2N1CC(O)CO (stereo not given) | inactive: 0.764 | inactive: 1.52 | inactive: -1.74
6 | NC(=O)c1ncn2c1CN=C(c1ccccc1Cl)c1ccccc1-2 | inactive: -0.656 | inactive: -0.222 | inactive: -0.726
7 | Cc1cc(C2=NOC(c3cc(Cl)cc(Cl)c3)(C(F)(F)F)C2)ccc1C(=O)NCC(=O)NCC(F)(F)F (stereo not given) [Fluralaner] | inactive: 3.14 | inactive: 0.19 | inactive: -0.242
8 | Oc1ccc(Cl)cc1Cc1cc(Cl)ccc1O | inactive: -1.21 | inactive: 1.53 | inactive: -0.315
9 | c1ccc2c(c1)CCN1CCNCC21 (stereo not given) | inactive: 0.351 | inactive: 0.145 | inactive: -1.25
10 | CC[C@@H](C(=O)O)[C@@H]1O[C@@H]([C@@H](C)[C@H](O)[C@H](C)C(=O)[C@H](CC)[C@H]2O[C@]3(C=C[C@@H](O)[C@]4(CC[C@@](C)([C@H]5CC[C@](O)(CC)[C@H](C)O5)O4)O3)[C@H](C)C[C@@H]2C)[C@@H](C)C[C@@H]1C [Narasin] | inactive: -0.436 | inactive: -0.232 | active: 17.1
11 | CC(C)N(CCc1c[nH]c2ccccc12)C(C)C | inactive: 2.11 | active: 10.5 | inactive: 0.511
12 | CC(=O)O[C@H]1CC[C@H]2[C@@H]3CC=C4C[C@@H](O)CC[C@]4(C)[C@H]3CC[C@]12C | inactive: -1.28 | inactive: 1.11 | inactive: 0.793
13 | OCCCCO [Tetramethylene glycol] | inactive: 0.16 | inactive: -2.01 | inactive: -0.818
14 | O=S1(N2CC2)=NP(N2CC2)(N2CC2)=NP(N2CC2)(N2CC2)=N1 (stereo not given) | inactive: -1.21 | inactive: -0.878 | inactive: 1.45
15 | Cc1ccc2c(c1)[C@]13CCCC[C@@H]1[C@H](C2)N(C)CC3 [Dimemorfan phosphate] | inactive: 3.46 | inactive: -0.97 | inactive: 0.0242
16 | CC(C)NC(C)Cc1ccc(O)cn1 (stereo not given) [Prisotinol] | inactive: -1.3 | inactive: 1.98 | inactive: -0.121
17 | O=C(O)CCc1csc(NC(=O)c2cc3c(n(CC4CCCCC4)c2=O)CCCCCC3)n1 | inactive: -3.08 | inactive: 2.8 | inactive: 0.229
18 | c1ccc2c(c1)Sc1ccccc1N2CC1CN2CCC1CC2 (stereo not given) [Mequitazine] | inactive: -1.31 | inactive: 0.924 | inactive: -1.42
19 | CNC1=Nc2ccc(Cl)cc2C(c2ccccc2)=[N+]([O-])C1 [Chlordiazepoxide hydrochloride] | – | – | inactive: -0.635
20 | CNC1=Nc2ccc(Cl)cc2C(c2ccccc2)=[N+]([O-])C1 | inactive: -0.878 | inactive: 0.565 | –
21 | c1cnc2c(c1)O[C@@H]1CCN3CC[C@]1(C2)C3 [Dianicline] | inactive: -0.683 | inactive: 0.595 | inactive: -1.63
22 | O=C(O)CCC(CP(=O)(O)O)C(=O)O (stereo not given) | inactive: 1.18 | inactive: 0.684 | inactive: -1.99
23 | COc1cccc([C@@]2(O)C[C@H](O)CC[C@@H]2CN(C)C)c1 | inactive: 0.137 | inactive: 1.8 | inactive: 0.17
24 | CCCCN(CCCC)CCc1ccc(O)c(O)c1 | inactive: -1.06 | inactive: 0.0712 | inactive: -2.66
25 | CC(CCc1ccccc1)NC(C)C(O)c1ccc(O)cc1 (stereo not given) [nylidrin hydrochoride] | inactive: -0.122 | inactive: 3.17 | inactive: 4.8
26 | Oc1cccc(C2CNCCO2)c1 (stereo not given) | inactive: -0.691 | inactive: 0.55 | inactive: -0.158
27 | NC(=O)[C@H](CC1CC1)NC(=O)c1cnc(N2CC(F)(F)C2)c(OCC2CC2)n1 | active: 7.86 | inactive: -1.64 | inactive: -0.962

2 entries from above, set out differently.
Row	SMILES	TEAD-luciferase reporter activity (compound concentration: 200 nM)	TEAD-luciferase reporter activity (compound concentration: 10 uM)	TEAD-luciferase reporter activity (compound concentration: 2 uM)
19	CNC1=Nc2ccc(Cl)cc2C(c2ccccc2)=[N+]([O-])C1 [Chlordiazepoxide hydrochloride]	–	–	inactive: -0.635
20	CNC1=Nc2ccc(Cl)cc2C(c2ccccc2)=[N+]([O-])C1	inactive: -0.878	inactive: 0.565	–
